PubChem BioAssay AID1508588 | Peter MacCallum Cancer Centre, 2020
Assay: 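Genome-wide search for knock-downs that heighten vemurafenib action in melanoma cells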 (primary screen). System: human WM266.4 melanoma cells (BRAF V600 mutant). Reagent: siRNA pool against human genes, 40 nM. Timing: 96 h from transfection to read-out. Challenge: vemurafenib 300 nM (about IC25), added 48 h after transfection, for 48 h; comparison arm got DMSO vehicle only. Detection: 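Ratios to non-targeting siRNA for cell gain, counted as DAPI nuclei after minus before drug and averaged over two replicates, and for absorbance-read medium lactate per cell; both binned into fold-change classes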. Reading the numbers: cell gain with vemurafenib: higher = more cell gain than with non-targeting siRNA; lactate per cell with vemurafenib: higher = more lactate made per cell. Active means: 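Enhancement is called by pairing each knock-down's vehicle-arm and drug-arm fold-change classes for viability or glycolysis; which class combinations qualify is not given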. Meaning of the calls: active = enhances vemurafenib effect; inactive = no enhancement seen.
The whole screen tested about 18,000 reagents; shown is a part drawn at random. Of all reagents, 790 (4.4%) were called active. 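Calls rest on a combination of fold-change classes in drug and vehicle arms, not all shown here.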 A number with no mark means an inactive call. Some reagents were tested in more than one well and are listed for each. No sequences are given here.

| target | cell gain with vemurafenib | lactate per cell with vemurafenib |
| --- | --- | --- |
| ENOSF1 (enolase superfamily member 1) | 0.83 | 1.12 |
| PELO (pelota mRNA surveillance and ribosome rescue factor) | 0.3 | 1.48 |
| ABRAXAS1 (abraxas 1, BRCA1 A complex subunit) | 0.47 | 0.42 |
| CSF2RB (colony stimulating factor 2 receptor subunit beta) | 0.53 | 0.64 |
| MGA (MAX dimerization protein MGA) | -0.01 | 1.85 |
| LAMC1 (laminin subunit gamma 1) | 0.8 | 0.45 |
| BBS12 (Bardet-Biedl syndrome 12) | 0.5 | 0.63 |
| PINK1 (PTEN induced kinase 1) | 0.68 | 0.39 |
| PSMC6 (proteasome 26S subunit, ATPase 6) | -0.1 | 5.62 |
| DHRS4 (dehydrogenase/reductase 4) | 0.33 | 1.87 |
| C8B (complement C8 beta chain) | 0.2 | 1.14 |
| UNC80 (unc-80 subunit of NALCN channel complex) | -0.01 | 0.88 |
| AIG1 (androgen induced 1) | 0.71 | 0.73 |
| CYTH4 (cytohesin 4) | 0.77 | 1.14 |
| OGFRL1 (opioid growth factor receptor like 1) | 0.69 | 1.16 |
| USP16 (ubiquitin specific peptidase 16) | 0.44 | 0.8 |
| KATNBL1 (katanin regulatory subunit B1 like 1) | 0.95 | 0.85 |
| ZNF683 (zinc finger protein 683) | 0.65 | 0.82 |
| RNF5 (ring finger protein 5) | 1.08 | 0.84 |
| CPT1C (carnitine palmitoyltransferase 1C) | 0.43 | 1 |
| ATP2B3 (ATPase plasma membrane Ca2+ transporting 3) | 0.95 | 0.63 |
| AP5M1 (adaptor related protein complex 5 subunit mu 1) | 0.4 | 1.21 |
| STAM (signal transducing adaptor molecule) | 0.86 | 1.09 |
| TMEM50A (transmembrane protein 50A) | 0.48 | 0.56 |
| HECW2 | 0.66 | 0.47 |
| ASMTL (acetylserotonin O-methyltransferase like) | 0.47 | 0.93 |
| BTG3 (BTG anti-proliferation factor 3) | 1.4 | 0.7 |
| CHRNA3 (cholinergic receptor nicotinic alpha 3 subunit) | 0.38 | 1.56 |
| CCDC59 (coiled-coil domain containing 59) | 0.15 | 2.74 |
| ZEB1 (zinc finger E-box binding homeobox 1) | 0.55 | 1.54 |
| SHOC2 (SHOC2 leucine rich repeat scaffold protein) | 1.05 | 0.7 |
| NSMF | 1.28 | 0.68 |
| POP1 (POP1 ribonuclease P/MRP subunit) | 0.45 | 1.86 |
| ETS2 (ETS proto-oncogene 2, transcription factor) | 0.22 | 1.88 |
| MEA1 (male-enhanced antigen 1) | 0.3 | 1.98 |
| EMCN (endomucin) | 0.87 | 0.54 |
| OPHN1 (oligophrenin 1) | 0.63 | 0.38 |
| ACSL1 (acyl-CoA synthetase long chain family member 1) | 0.59 | 1.75 |
| ORC5 (origin recognition complex subunit 5) | 0.84 | 0.92 |
| PPM1A (protein phosphatase, Mg2+/Mn2+ dependent 1A) | 0.86 | 1.24 |

Not a retest: 10 of the entries above.
| target | cell gain with vemurafenib | lactate per cell with vemurafenib |
| --- | --- | --- |
| HECW2 | 0.66 | 0.47 |
| ASMTL (acetylserotonin O-methyltransferase like) | 0.47 | 0.93 |
| BTG3 (BTG anti-proliferation factor 3) | 1.4 | 0.7 |
| CHRNA3 (cholinergic receptor nicotinic alpha 3 subunit) | 0.38 | 1.56 |
| CCDC59 (coiled-coil domain containing 59) | 0.15 | 2.74 |
| ZEB1 (zinc finger E-box binding homeobox 1) | 0.55 | 1.54 |
| SHOC2 (SHOC2 leucine rich repeat scaffold protein) | 1.05 | 0.7 |
| NSMF | 1.28 | 0.68 |
| POP1 (POP1 ribonuclease P/MRP subunit) | 0.45 | 1.86 |
| ETS2 (ETS proto-oncogene 2, transcription factor) | 0.22 | 1.88 |

More records:
| target | cell gain with vemurafenib | lactate per cell with vemurafenib |
| --- | --- | --- |
| ZNF432 (zinc finger protein 432) | 0.51 | 0.58 |
| RIGI (RNA sensor RIG-I) | 0.61 | 1.31 |
| BCR (BCR activator of RhoGEF and GTPase) | 0.23 | 1.68 |
| GRB2 (growth factor receptor bound protein 2) | 0.22 | 2.51 |
| SARNP (SAP domain containing ribonucleoprotein) | 0.36 | 0.63 |
| IFNAR1 (interferon alpha and beta receptor subunit 1) | 1.1 | 0.77 |
| CAPZA2 (capping actin protein of muscle Z-line subunit alpha 2) | 0.89 | 0.74 |
| ACTL6A (actin like 6A) | 0.7 | 0.79 |
| NR6A1 (nuclear receptor subfamily 6 group A member 1) | 0.44 | 1.15 |
| PSORS1C1 (psoriasis susceptibility 1 candidate 1) | 0.94 | 0.91 |
| RPRD1A (regulation of nuclear pre-mRNA domain containing 1A) | 0.49 | 1.18 |
| UBXN2B (UBX domain protein 2B) | 1.07 | 0.84 |
| DNPEP (aspartyl aminopeptidase) | 0.24 | 0.88 |
| RPS27L (ribosomal protein S27 like) | 0.73 | 0.84 |
| COPS8 (COP9 signalosome subunit 8) | 0.6 | 1.7 |
| BNIP1 (BCL2 interacting protein 1) | 0.35 | 1.59 |
| MST1R (macrophage stimulating 1 receptor) | 0.51 | 0.7 |
| PDIA2 (protein disulfide isomerase family A member 2) | 1.6 | 0.84 |
| FNTB (farnesyltransferase, CAAX box, subunit beta) | 0.51 | 0.62 |
| MYH2 (myosin heavy chain 2) | 0.52 | 1.46 |
| INPP4B (inositol polyphosphate-4-phosphatase type II B) | 0.58 (active) | 0.48 |
| FBXO11 (F-box protein 11) | 0.59 | 1.52 |
| MAN2C1 (mannosidase alpha class 2C member 1) | 0.7 | 1.06 |
| SNTA1 (syntrophin alpha 1) | 0.06 | 0.84 |
| HPX (hemopexin) | 0.47 | 1.12 |
| ORC6 (origin recognition complex subunit 6) | 0.92 | 0.7 |
| LMO4 (LIM domain only 4) | 0.62 | 0.84 |
| OSCAR (osteoclast associated Ig-like receptor) | 0.51 | 0.32 |
| RTTN (rotatin) | 0.43 (active) | 0.24 |
| GNA11 (G protein subunit alpha 11) | 0.45 | 1.31 |
| POU4F3 (POU class 4 homeobox 3) | 0.99 | 0.86 |
| H4C11 (H4 clustered histone 11) | 1.32 | 1.28 |
| CCNL2 (cyclin L2) | 0.99 | 0.94 |
| KRTAP23-1 (keratin associated protein 23-1) | 0.65 | 1.08 |
| MLEC (malectin) | 0.37 (active) | 0.42 |
| DUSP10 (dual specificity phosphatase 10) | 0.54 | 1.4 |
| GABRA6 (gamma-aminobutyric acid type A receptor subunit alpha6) | 0.71 | 1.07 |
| TMC4 (transmembrane channel like 4) | 0.68 | 0.74 |
| VPS41 (VPS41 subunit of HOPS complex) | 1.03 | 0.52 |
| PHYHD1 (phytanoyl-CoA dioxygenase domain containing 1) | 0.19 (active) | 0.94 |
| THSD1 (thrombospondin type 1 domain containing 1) | 0.62 (active) | 0.36 |
| TICRR (TOPBP1 interacting checkpoint and replication regulator) | 0.06 | 1.23 |
| RFK (riboflavin kinase) | 0.69 | 1.15 |
| OR11H4 (olfactory receptor family 11 subfamily H member 4) | 0.52 | 0.51 |
| GOLGA6L9 (golgin A6 family like 9) | 0.78 (active) | 0.17 |
| GRIN2C (glutamate ionotropic receptor NMDA type subunit 2C) | 0.44 | 1.07 |
| ZNF556 (zinc finger protein 556) | 0.7 | 0.79 |
| MFAP4 (microfibril associated protein 4) | 0.78 | 1.44 |
| LRRC63 (leucine rich repeat containing 63) | 0.74 | 0.7 |
| BAZ2B (bromodomain adjacent to zinc finger domain 2B) | 0.62 | 1.52 |
| ATAD3B (ATPase family AAA domain containing 3B) | 0.69 | 0.38 |
| CDIP1 (cell death inducing p53 target 1) | 0.6 | 0.62 |
| RANBP17 (RAN binding protein 17) | 0.28 | 0.99 |
| PTH2R (parathyroid hormone 2 receptor) | 0.98 | 0.92 |
| ZNF548 (zinc finger protein 548) | 0.48 | 1 |
| PIP5K1A (phosphatidylinositol-4-phosphate 5-kinase type 1 alpha) | 1.01 | 0.84 |
| KIAA0753 | 0.84 | 0.9 |
| TTC7A (tetratricopeptide repeat domain 7A) | 0.35 | 1.62 |
| MRPL50 (mitochondrial ribosomal protein L50) | 0.32 | 1.1 |
| DUSP16 (dual specificity phosphatase 16) | 0.72 | 0.84 |
| SLC16A9 | 0.19 | 1 |
| AKAP5 (A-kinase anchoring protein 5) | 0.89 | 0.61 |
| IDH1 (isocitrate dehydrogenase (NADP(+)) 1) | 0.74 | 0.96 |
| RRBP1 (ribosome binding protein 1) | 1.04 | 1.07 |
| YOD1 (YOD1 deubiquitinase) | 0.45 | 0.81 |
| PFKFB1 (6-phosphofructo-2-kinase/fructose-2,6-biphosphatase 1) | 0.59 | 0.95 |
| PFKFB1 (6-phosphofructo-2-kinase/fructose-2,6-biphosphatase 1) | 0.73 | 1.34 |
